The results in this text go back to article doi:10.1101/2025.07.16.665076.

No constants are given. Whether binding was seen depends on the method and setting. In cells and extracts the contact can be indirect. Here binding means that the protein was enriched with, or labelled near, the bait; the list need not be complete. Where a sequence is shown, tags or fusion partners need not be part of it.

The experiment concerns the target T1, His-ALFA-SAA1-N terminus (SAA1-N) (human) (UniProt P0DJI8).
T1 sequence: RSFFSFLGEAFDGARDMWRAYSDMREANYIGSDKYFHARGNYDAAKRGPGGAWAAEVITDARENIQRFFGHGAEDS
The experiment is described as follows: affinity purification with mass spectrometry.

B1: SERPINF2 (bovine plasma) (protein, UniProt P28800 41-492)
chain: AQQKLPPLSLLKLDNQEPGGQIAPKKAPEDCKLSPTPEQTRRLARAMMTFTTDLFSLVAQSSTRPNLILSPLSVALALSHLALGAQNQTLQRLKEVLHADSGPCLPHLLSRLCQDLGPGAFRLAARMYLQKGFPIKEDFLEQSEQLFGAKPMSLTGMKGEDLANINRWVKEATEGKIEDFLSDLPDDTVLLLLNAIHFQGFWRSKFDPNLTQRGAFHLDEQFTVPVDMMQALTYPLHWFLLEQPEIQVAHFPFKNNMSFVVLMPTRFEWNASQVLANLTWDILHQPSLSERPTKVQLPKLHLKYQLDLVATLSQLGLQELFQAPDLRGISDERLVVSSVQHQSALELSEAGVQAAAATSTAMSRMSLSSFIVNRPFLFFILEDSTSLPLFVGSVRNPNPGAQPERKEQQDSPDGKDSFQDHKGLPRGDKPFDPDLKLGPPSEEDYAQPSSPK
Take B1: the binding result was “binds”.

B2: APOD (bovine plasma) (protein, UniProt Q32KY0 21-189)
chain: QAFHLGKCPHPPVQENFDVNKYLGKWYEIEKIPVSFEKGSCIQANYSLKENGNVEVINKELRADGTVNQIEGEATPENITEPAKLAVKFFWFMPSAPYWVLATDYENYALVYSCTTIIWLFHMDHVWILGRNPYLPPETVTYLKDILTSNNIEVEKMTITDQVNCPESM
With B2, the binding result is listed as “binds”.

B3: apolipoprotein E (bovine plasma) (protein, UniProt Q03247 19-316)
chain: DMEGELGPEEPLTTQQPRGKDSQPWEQALGRFWDYLRWVQTLSDQVQEELLNTQVIQELTALMEETMKEVKAYKEELEGQLGPMAQETQARVSKELQAAQARLGSDMEDLRNRLAQYRSEVQAMLGQSTEELRARMASHLRKLPKRLLRDADDLKKRLAVYQAGASEGAERSLSAIRERFGPLVEQGQSRAATLSTLAGQPLLERAEAWRQKLHGRLEEVGVRAQDRLDKIRQQLEEVHAKVEEQGNQMRLQAEAFQARLRSWFEPLVEDMQRQWAGLVEKVQLALRPSPTSPPSENH
Regarding B3, the binding result is given as “binds”.

B4: GPLD1 (bovine plasma) (enzyme, UniProt P80109 24-839)
chain: CGISTHIEIGHRALEFLHLQDGSINYKELLLRHQDAYQAGSVFPDSFYPSICERGQFHDVSESTHWTPFLNASVHYIRKNYPLPWDEDTEKLVAFLFGITSHMVADVNWHSLGIEQGFLRTMAAIDFHNSYPEAHPAGDFGGDVLSQFEFKFNYLSRHWYVPAEDLLGIYRELYGRIVITKKAIVDCSYLQFLEMYAEMLAISKLYPTYSVKSPFLVEQFQEYFLGGLEDMAFWSTNIYHLTSYMLKNGTSNCNLPENPLFITCGGQQNNTHGSKVQKNGFHKNVTAALTKNIGKHINYTKRGVFFSVDSWTMDSLSFMYKSLERSIREMFIGSSQPLTHVSSPAASYYLSFPYTRLGWAMTSADLNQDGYGDLVVGAPGYSHPGRIHVGRVYLIYGNDLGLPRIDLDLDKEAHGILEGFQPSGRFGSAVAVLDFNVDGVPDLAVGAPSVGSEKLTYTGAVYVYFGSKQGQLSSSPNVTISCQDTYCNLGWTLLAADVNGDSEPDLVIGSPFAPGGGKQKGIVAAFYSGSSYSSREKLNVEAANWMVKGEEDFAWLGYSLHGVNVNNRTLLLAGSPTWKDTSSQGHLFRTRDEKQSPGRVYGYFPPICQSWFTISGDKAMGKLGTSLSSGHVMVNGTRTQVLLVGAPTQDVVSKVSFLTMTLHQGGSTRMYELTPDSQPSLLSTFSGNRRFSRFGGVLHLSDLDNDGLDEIIVAAPLRITDATAGLMGEEDGRVYVFNGKQITVGDVTGKCKSWVTPCPEEKAQYVLISPEAGSRFGSSVITVRSKEKNQVIIAAGRSSLGARLSGVLHIYRLGQD
Turning to B4, the binding result is reported as “binds”.

B5: SPP2 (bovine plasma) (protein, UniProt Q27967 24-203)
chain: FPVYDYDPASLKEALSASVAKVNSQSLSPYLFRAFRSSVKRVNALDEDSLTMDLEFRIQETTCRRESEADPATCDFQRGYHVPVAVCRSTVRMSAEQVQNVWVRCHWSSSSGSSSSEEMFFGDILGSSTSRNSYLLGLTPDRSRGEPLYEPSREMRRNFPLGNRRYSNPWPRARVNPGFE
As to B5, the binding entry is “binds”.

B6: PLA2G7 (bovine plasma) (protein, UniProt Q28017 22-444)
chain: FDWQDLNPVAYIESPAWVSKIQALMAAANIGQSKIPRGNGSYSVGCTDLMFDYTNKGTFLRLYYPSQDDDHSDTLWIPNKEYFLGLSKFLGTHWLVGKIMGLFFGSMTTPAAWNAHLRTGEKYPLIIFSHGLGAFRTIYSAIGIDLASHGFIVAAVEHRDGSASSTYYFKDQSAVEIGNKSWLYLRTLKRGEEEFPLRNEQLRQRAKECSQALSLILDIDHGRPVTNVLDLEFDVEQLKDSIDRDKIAIIGHSFGGATVIQTLSEDQRFRCGIALDAWMFPVGDEVYSRIPQPLFFINSERFQYPSNIIRMKKCFLPDRERKMITIRGSVHQNFVDFTFATSKIIGYLFTLKGDIDSNVAISLSNKASLAFLQKHLGLQKDFDQWDSLVEGEDHNLIPGTNINTTNHQAILQNSTGIERPNLD
Consider B6, for which the binding result was “binds”.
